# Results reported in the supplement of paper PMC6289059.
# Where a name gives a salt, the structure may show the parent alone. This is one part of the list. Single values are uncertain, as repeats are few or missing.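 The cells are hepatocyte-like cells grown from human stem cells in which the DGUOK gene was disrupted by CRISPR, a model of liver mtDNA depletion syndrome. Each well's ATP signal was scored against the other wells on its plate, and a drug counted as a primary hit when its score was 3 or higher.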 Residues, ends and D or L forms follow the SMILES beside them.
# Tested on: DGUOK Δ14/Δ5 iPSC-derived hepatocyte-like cells (SV20)
# Test: ATP level (CellTiter-Glo luminescence) Z score relative to plate distribution, under 2-DG glycolysis block; higher = more cellular ATP (rescue of mitochondrial ATP production)
# Conditions: 5 µM; treatment time: day 15 to day 20 of differentiation (5 days); 2-deoxy-D-glucose: 20 mM for 24 h before assay
row,SMILES,ATP level
1,Cc1ccc(-c2cc(C(F)(F)F)nn2-c2ccc(S(N)(=O)=O)cc2)cc1,active: 3.68
2,O=C1c2ccccc2C(=O)c2c(O)c(O)cc(O)c21,inactive: 0.196
3,C[C@]12CC[C@@H]3c4ccc(O)cc4C[C@@H](CCCCCCCCC[S+]([O-])CCCC(F)(F)C(F)(F)F)[C@H]3[C@@H]1CC[C@@H]2O (some centres undefined),inactive: -0.717
4,O=C(O)[C@@H]1[C@H]2C[C@H]3c4[nH]c5ccccc5c4CCN3C[C@@H]2CC[C@@H]1O,inactive: 0.126
5,O=C(NCCCN1CCOCC1)c1ccc(Cl)cc1,inactive: 0.0487
6,COc1cc(CNC(=O)CCCC/C=C/C(C)C)ccc1O,inactive: -0.426
7,COC(=O)c1c(OC)cc2c(c1C)Oc1c(Cl)c(O)c(Cl)c(C)c1C(=O)O2,inactive: -8
8,CO/N=C(\C(=O)N[C@@H]1C(=O)N2C(C(=O)O)=C(COC(C)=O)CS[C@H]12)c1csc(N)n1,inactive: -11.3
9,C=C[C@](C)(O)CC[C@@H]1[C@@]2(C)CCCC(C)(C)[C@@H]2CC[C@@]1(C)O,inactive: -5.8
10,O=C(/C=C/c1ccc(O)c(O)c1)O[C@H](Cc1ccc(O)c(O)c1)C(=O)O,inactive: -2.11
11,COC(=O)[C@H](Cc1ccccc1)NC(=O)[C@@H](N)CC(=O)O (H-Asp-Phe-OMe),inactive: 1.26
12,COc1cc(O)c2c(=O)cc(C)oc2c1CC=C(C)C,inactive: 1.22
13,OC[C@@H](O)[C@@H](O[C@@H]1O[C@H](CO)[C@@H](O)[C@H](O)[C@H]1O)[C@H](O)[C@@H](O)CO,inactive: 1.16
14,C[N+](C)(C)CC(O)CC(=O)[O-] (centres undefined),inactive: 0.953
15,CCCCOc1cc(C(=O)OCCN(CC)CC)ccc1N,inactive: -1.71
16,CC(=O)Nc1nnc(S(N)(=O)=O)s1,inactive: -0.289
17,CC(=O)O[C@]1(C)CC[C@@]23C[C@H]1C(C)(C)[C@@H]2CC[C@H]3C,inactive: -4.91
18,CC(=O)Nc1c(I)cc(I)c(C(=O)O)c1I,inactive: -0.177
19,Cc1cc2cc3c(C)cc(=O)oc3c(C)c2o1,inactive: -2.19
20,CC(C)Oc1ccc2c(=O)c(-c3ccccc3)coc2c1,inactive: 1.31
21,COC1=CC(=O)C(O)=C/C1=C\C=C\c1ccccc1,inactive: 0.0483
22,O=C(CCCl)NCCc1ccccc1,inactive: 1.24
23,CCCOc1ccccc1-c1nc2[nH]nnc2c(=O)[nH]1,inactive: 1.15
24,CCN(Cc1cccc(S(=O)(=O)O)c1)c1ccc(C(=C2C=CC(=[N+](CC)Cc3cccc(S(=O)(=O)O)c3)C=C2)c2ccc(O)cc2S(=O)(=O)[O-])cc1,inactive: -0.952
25,CCCCCCNC(=O)n1cc(F)c(=O)[nH]c1=O,inactive: -0.837
26,COc1ccc(Cl)cc1C(=O)NCCc1ccc(S(=O)(=O)NC(=O)NC2CCCCC2)cc1,inactive: 1.93
27,CC#C[C@]1(O)CC[C@H]2[C@@H]3CCC4=CC(=O)CCC4=C3[C@@H](c3ccc(N(C)C)cc3)C[C@@]21C,inactive: -1.34

row,SMILES,ATP level
1,COc1cc(O)c2c(=O)c(OC)c(-c3ccc(OC)c(OC)c3)oc2c1,inactive: 0.063
2,O=c1cc(-c2ccccc2)oc2ccccc12,inactive: -0.619
3,O=C(O)C1=CC(=C(c2ccc(O)c(C(=O)O)c2)c2ccc(O)c(C(=O)O)c2)C=CC1=O,inactive: 1.64
4,C[C@@H]1C/C=C/C=C/C=C/C=C/[C@H](O[C@@H]2O[C@H](C)[C@@H](O)[C@H](N)[C@@H]2O)C[C@@H]2O[C@](O)(C[C@@H](O)C[C@H]3O[C@@H]3/C=C/C(=O)O1)C[C@H](O)[C@H]2C(=O)O,inactive: 2.25
5,NC(Cc1ccc(F)cc1)C(=O)O (centres undefined),inactive: -2.24
6,CC(C)[C@H](N)C(=O)OCCOCn1cnc2c(=O)nc(N)[nH]c21,inactive: -0.461
7,NCCC(=O)N[C@@H](Cc1c[nH]cn1)C(=O)O,inactive: -0.782
8,CN(C(=O)CN(CCO)CC(=O)N(C)C(C)(C)Cc1ccccc1)C(C)(C)Cc1ccccc1,inactive: -4.63
9,CC1(C)C2CCC1(CS(=O)(=O)O)C(=O)C2=Cc1ccc(C=C2C(=O)C3(CS(=O)(=O)O)CCC2C3(C)C)cc1,inactive: 2.77
10,COC(=O)N/N=C/c1c[n+]([O-])c2ccccc2[n+]1[O-],inactive: -4.15
11,CC(C)=CCc1c2c(c3occ(-c4ccc(O)c(O)c4)c(=O)c3c1O)C=CC(C)(C)O2,inactive: 0.879
12,CCCCCCCC/C=C\CCCCCCCC(=O)O.NCCO,inactive: 2.6
13,COc1cc(NS(=O)(=O)c2ccc(N)cc2)ncn1,inactive: 2.89
14,CC1(C)O[C@@H]2C[C@H]3[C@@H]4C[C@H](F)C5=CC(=O)C=C[C@]5(C)[C@@]4(F)[C@@H](O)C[C@]3(C)[C@]2(C(=O)CO)O1,inactive: 2.57
15,Cc1cc(C)nc(NS(=O)(=O)c2ccc(N)cc2)n1,inactive: -11.1
16,CCOC(=O)Nc1nc2ccccc2[nH]1,inactive: -0.804
17,COc1ccc(-c2oc3cc(OC)c(OC)c(OC)c3c(=O)c2OC)cc1OC,inactive: 1.29
18,NC[C@H]1O[C@H](O[C@H]2[C@H](O)[C@@H](O[C@H]3O[C@H](CO)[C@@H](O)[C@H](N)[C@H]3O)[C@H](N)C[C@@H]2N)[C@H](N)C[C@@H]1O,inactive: 0.197
19,Cc1c(N)c(=O)n(-c2ccccc2)n1C,inactive: -0.635
20,CC1C(=O)OC2C1CCC1(C)CCC(=O)C(C)C21 (centres undefined),inactive: -0.85
21,O=C(O)c1ccc[n+]([O-])c1,inactive: 0.48
22,CC(C)(CO)[C@@H](O)C(=O)NCCC(=O)O [PANTOTHENIC ACID(d) Na salt],inactive: -2.44
23,CCN(CCCCOC(=O)c1ccc(OC)c(OC)c1)C(C)Cc1ccc(OC)cc1 (centres undefined),inactive: -0.302
24,Cc1cc(C(C)(C)C)cc(C)c1CC1=NCCN1,inactive: 0.35
25,CCN(CC)C(=O)C1(c2ccccc2)CC1CN (centres undefined),inactive: 1.74
26,CC#CCn1c(N2CCC[C@@H](N)C2)nc2c1c(=O)n(Cc1nc(C)c3ccccc3n1)c(=O)n2C,inactive: 1.16
27,CCN(CC)CCOCCOC(=O)C1(c2ccccc2)CCCC1,inactive: -0.396

# Sorted by molecular weight (rising): 3 of the compounds above
row,SMILES,ATP level
19,Cc1c(N)c(=O)n(-c2ccccc2)n1C,inactive: -0.635
16,CCOC(=O)Nc1nc2ccccc2[nH]1,inactive: -0.804
11,CC(C)=CCc1c2c(c3occ(-c4ccc(O)c(O)c4)c(=O)c3c1O)C=CC(C)(C)O2,inactive: 0.879
